Assay results as given in publication PMC7819943, “Rice protein-binding microarrays: a tool to detect cis-acting elements near promoter regions in rice”.
This is one part of the list.

Sequences of proteins named here, by UniProt entry; tags and fusion partners are left off.
UniProt Q0JBA9, entry or part of it: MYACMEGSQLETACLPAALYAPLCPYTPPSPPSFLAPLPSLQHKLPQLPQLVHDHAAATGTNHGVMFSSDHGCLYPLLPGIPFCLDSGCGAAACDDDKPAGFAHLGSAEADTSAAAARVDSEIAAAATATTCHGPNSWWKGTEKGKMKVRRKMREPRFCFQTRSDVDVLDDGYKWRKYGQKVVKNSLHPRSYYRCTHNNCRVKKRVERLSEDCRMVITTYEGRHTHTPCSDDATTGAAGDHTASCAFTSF

What follows are sequences tested against OsWRKY34 (Oryza sativa, UniProt Q0JBA9 1-250) (assay: protein-binding microarray (RPBM); PBS, 2% BSA, 51.3 ng/ul salmon testes DNA, 50 uM zinc acetate, 200 nM TF, 25 C, 1 h; high values mean tight binding). Details: protein: recombinant; tags: N-terminal polyhistidine and DsRed monomer fusion (pET32a); label: CyDye5-dUTP incorporated in the synthesized complementary strand; 3' TTTTT single-stranded linker to array surface; dsDNA, one strand shown.
Outline: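 Transcription factors, each fused N-terminally to a polyhistidine tag and DsRed, were expressed in E. coli BL21-CodonPlus and purified on Ni–NTA. A custom Agilent array was made double-stranded by primer extension with Cy5-dUTP and blocked with 2% BSA. It was incubated with 200 nM protein in PBS, 2% BSA, salmon testes DNA and 50 µM zinc acetate at 25 °C for 1 h, then washed. The binding signal is per-feature fluorescence intensity (arbitrary units) read on an Axon 4000B scanner.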

Sequence | binding signal
GAAGATCAATGATTCACTGTTTACTCGGCTTCTTCGCTGTCGGAGTCACCTAGTGCAG | 9350 fluorescence intensity (a.u.)
GCCTACCCTGTTCTGCCAGGTTTTGCTTCTCCTGCGTCCTCGGAGTCACCTAGTGCAG | 11000 fluorescence intensity (a.u.)
GCCCCTGTCCTTTCCGTTTGATTTTAGAGTTGATTTTTTACGGAGTCACCTAGTGCAG | 10100 fluorescence intensity (a.u.)
GCTTTGAGCTAAACTAATCTGTTACCCTTTGCAACTACAGCGGAGTCACCTAGTGCAG | 8030 fluorescence intensity (a.u.)
TCATCAGCTCCGGCTAACTCCTTTCCTTTCTTTGTTTTTTCGGAGTCACCTAGTGCAG | 12900 fluorescence intensity (a.u.)
GGGTTGTGGGATGGACTTCTCTGTTTGGGCTACCGATCTTCGGAGTCACCTAGTGCAG | 13500 fluorescence intensity (a.u.)
ATATATTTTCTCCCTAGAACTATTTCTCTTCTCTTTATATCGGAGTCACCTAGTGCAG | 8500 fluorescence intensity (a.u.)
ATCGTTTTTTTTCCGCTGCTGCTGCTTTTGTTTCGGTGTGCGGAGTCACCTAGTGCAG | 10900 fluorescence intensity (a.u.)
CATACACACACAATTTTTCAGTCATATCATCTTCAATTTCCGGAGTCACCTAGTGCAG | 9490 fluorescence intensity (a.u.)
TTGTCATTTATTTTGCTAGTTATGTCACATTCTAAATTGACGGAGTCACCTAGTGCAG | 9890 fluorescence intensity (a.u.)
GAGTACATCCGTAGCTGCCAGCACCCACTGCCCAATGAGACGGAGTCACCTAGTGCAG | 8660 fluorescence intensity (a.u.)
ACATCACAGCCTCAGAGAATGGGCAGCACACATTGATCATCGGAGTCACCTAGTGCAG | 8170 fluorescence intensity (a.u.)
GTAGATGAGCAATCCAATGTGTACCTGTGTTGTCTGTTGACGGAGTCACCTAGTGCAG | 9860 fluorescence intensity (a.u.)
GAGTTTCATTCCTGTCCAAACTCTTGACCTTGCCTGACCCCGGAGTCACCTAGTGCAG | 9190 fluorescence intensity (a.u.)
CGACATCCTTTATCTTATCCATCCATCCCACACTGCCACACGGAGTCACCTAGTGCAG | 8750 fluorescence intensity (a.u.)
CGTTGACTTTTTCTCACATGTTTGACCATTCGTCTTATTCCGGAGTCACCTAGTGCAG | 31500 fluorescence intensity (a.u.)
TTCTTCGGTGGTGGTGGTGGTGGGATGGAAGAGGAGGAAGCGGAGTCACCTAGTGCAG | 25800 fluorescence intensity (a.u.)
GTGTGGATGGTTAGGGGAGGGTTATGTGGAGGGTCTTGTCCGGAGTCACCTAGTGCAG | 14300 fluorescence intensity (a.u.)
CTGCATTCCTCCTCCCTCCGCCTCTCGCCGTCGCCGGCGCCGGAGTCACCTAGTGCAG | 8170 fluorescence intensity (a.u.)
TCCCCTATCTAGAATTATTCACTTTTATGCTTCTATTGTTCGGAGTCACCTAGTGCAG | 8500 fluorescence intensity (a.u.)
TCTAATCTCATCCGTCCGCTGTACACCGTAGCTCTATCTCCGGAGTCACCTAGTGCAG | 11200 fluorescence intensity (a.u.)

Sequence | binding signal
TTGGCTGGAGCTACCCGAAATCATCCTATTTCGTTTTTTTCGGAGTCACCTAGTGCAG | 11000 fluorescence intensity (a.u.)
CCTGCTCGCGGTTGCCTGTGCGTTCGTCTCGCGATTTCTCCGGAGTCACCTAGTGCAG | 11900 fluorescence intensity (a.u.)
ACTTAGCTAGTGTCTTATTTTCCTTTTTTATTTTTTTCAACGGAGTCACCTAGTGCAG | 9140 fluorescence intensity (a.u.)
TTTTCGCTGCATGCTGCTTGTCCTGCAAAGTCTCTCGCTTCGGAGTCACCTAGTGCAG | 8940 fluorescence intensity (a.u.)
GCCACTTGCTCCACCCAACGCGCGAGTCTGTGTGCCGCCGCGGAGTCACCTAGTGCAG | 9420 fluorescence intensity (a.u.)
TGCTGCTGCTGTTGTTCGTGTATTGCTCCATCTGTGCACGCGGAGTCACCTAGTGCAG | 9920 fluorescence intensity (a.u.)
TTGTCTGGTATTGCTACTTTACTTCTCAGTGTTGTGTAATCGGAGTCACCTAGTGCAG | 8100 fluorescence intensity (a.u.)
TTTCCCCGACCAAATCCACGCAAAAACCCTTTCGCATCTACGGAGTCACCTAGTGCAG | 8780 fluorescence intensity (a.u.)
TCAATCAACGGCTACTTGTATGTAATCTCCACGCATTCCACGGAGTCACCTAGTGCAG | 8630 fluorescence intensity (a.u.)
AAGCTTCATCTCCTCCACGACGAACACCTTGTTCATCCTCCGGAGTCACCTAGTGCAG | 8730 fluorescence intensity (a.u.)
ATAATTTACTGCTACTGACTATATGTACTACCTCTTGCCTCGGAGTCACCTAGTGCAG | 9260 fluorescence intensity (a.u.)
CAGCAGCATCCAACCACGACCACAACCACAGAGCAGATTACGGAGTCACCTAGTGCAG | 8170 fluorescence intensity (a.u.)
CTCAAGCTTTTAGTTTGGTGTGTTTATTCTCTTCCCATTTCGGAGTCACCTAGTGCAG | 8550 fluorescence intensity (a.u.)
ATCCCAATCCATGATCCAGCCATTCATCATCTGCATATATCGGAGTCACCTAGTGCAG | 9790 fluorescence intensity (a.u.)
GCGGCGGCGGGGCGGCGTCGGGGAGGGAGGAGGAGCAGTGCGGAGTCACCTAGTGCAG | 10700 fluorescence intensity (a.u.)
CTTTGCATTGCATCTCAGTGTTCTTCCATTCTTTCCAGAGCGGAGTCACCTAGTGCAG | 10800 fluorescence intensity (a.u.)
AGCACTACTGCACTAGTACTGCAGTAGTATGTCGTTCTTCCGGAGTCACCTAGTGCAG | 8500 fluorescence intensity (a.u.)
GAACTTCCAGATTGGGTGGGGCAGCTCAAGCATGTACGGGCGGAGTCACCTAGTGCAG | 9580 fluorescence intensity (a.u.)
CATCTTGTAATCATGCACTACTGCAACACACAGAACACTCCGGAGTCACCTAGTGCAG | 9380 fluorescence intensity (a.u.)
GACGCATGCCTATTCTAGTGCTCCACTGCCACTATCTTTACGGAGTCACCTAGTGCAG | 8090 fluorescence intensity (a.u.)
TTTAGGGGTGTTTGGTTGAGGGGTGAGTGGGATGGGTTGGCGGAGTCACCTAGTGCAG | 10300 fluorescence intensity (a.u.)

Sequence | binding signal
ACCATATGCCGCCGGCTAGGTTTAATCACTGCATCTCCTGCGGAGTCACCTAGTGCAG | 8910 fluorescence intensity (a.u.)
CACCAAACATTTTCCTATGCGAGCCCCATCACTAAAATTACGGAGTCACCTAGTGCAG | 10500 fluorescence intensity (a.u.)
ATCCTATTCTACTTAGGTCGCTTTTTATTTGGACGGAGGGCGGAGTCACCTAGTGCAG | 8610 fluorescence intensity (a.u.)
GGTGCTTGAATGTCGAACCATCTACTAACATGGTTTCCAACGGAGTCACCTAGTGCAG | 8680 fluorescence intensity (a.u.)
TTGTTTCCTATACTTCCTACCAAATGTTCTGATTTTACTGCGGAGTCACCTAGTGCAG | 9520 fluorescence intensity (a.u.)
CTCTCTCACACATCTCCATCTAGATTAATTTGCACACAATCGGAGTCACCTAGTGCAG | 8060 fluorescence intensity (a.u.)
CTCTCACTGTCTCACTGTCTCACTCTCTCTTGCCCACATTCGGAGTCACCTAGTGCAG | 8470 fluorescence intensity (a.u.)
GGGTCTGCTACGATAGGTGGAAGTGTGCCCATATCCACTCCGGAGTCACCTAGTGCAG | 8750 fluorescence intensity (a.u.)
TGCGCCATCTTTTGTCGTCCCGAGGGGATGGGCGGGGTTGCGGAGTCACCTAGTGCAG | 16400 fluorescence intensity (a.u.)
GTCATTCTGAGTGTCTGCCTCTCAATGAGCACTCTTTTCACGGAGTCACCTAGTGCAG | 9650 fluorescence intensity (a.u.)
AACCTGCAAGCGCTCGACCGGTCATCATTCATCAGCTAAACGGAGTCACCTAGTGCAG | 8410 fluorescence intensity (a.u.)
CCCTTGTCGCCGGATTGCAACAACGAGTGCATTTTCTTGTCGGAGTCACCTAGTGCAG | 8180 fluorescence intensity (a.u.)
CCACGCAGGTTTGTTTTTGCTCTGTTTTCAGTTCCGATAACGGAGTCACCTAGTGCAG | 8840 fluorescence intensity (a.u.)
ACCTTGGATCACTTAATATAACCATTTGTTTCATCCTGGACGGAGTCACCTAGTGCAG | 10500 fluorescence intensity (a.u.)
AGAACGCGTTACGGATTGAAGTGCTCTTTTTTTGTTTTTGCGGAGTCACCTAGTGCAG | 9270 fluorescence intensity (a.u.)
TCTCCTCACGACATTCTCGCGCTCTCCCCTCCTGTAAAGACGGAGTCACCTAGTGCAG | 9260 fluorescence intensity (a.u.)
GAGGGCGAGGAGGGAAGGAGGGAGGGAGGCGACAGGCATGCGGAGTCACCTAGTGCAG | 8400 fluorescence intensity (a.u.)
GCATCCCACATCCCTGTCTTTCTCCTCTCCTACCCTTCTTCGGAGTCACCTAGTGCAG | 8940 fluorescence intensity (a.u.)
GATTTAGCCAGTATAATTTGGCTTCTTACCTATCCATTTTCGGAGTCACCTAGTGCAG | 9130 fluorescence intensity (a.u.)
AACTAAACACATCCTTATCGATGCTACCTTACCAAATTAACGGAGTCACCTAGTGCAG | 10300 fluorescence intensity (a.u.)
GTGTCTCGTCTCCGCCACCACCGCCGTCCCGGTCCAACCGCGGAGTCACCTAGTGCAG | 8230 fluorescence intensity (a.u.)

3 entries picked at random from those above, as already listed:
Sequence | binding signal
ACCATATGCCGCCGGCTAGGTTTAATCACTGCATCTCCTGCGGAGTCACCTAGTGCAG | 8910 fluorescence intensity (a.u.)
GAGGGCGAGGAGGGAAGGAGGGAGGGAGGCGACAGGCATGCGGAGTCACCTAGTGCAG | 8400 fluorescence intensity (a.u.)
GTCATTCTGAGTGTCTGCCTCTCAATGAGCACTCTTTTCACGGAGTCACCTAGTGCAG | 9650 fluorescence intensity (a.u.)

Carrying on:

Sequence | binding signal
GAGAGGATGGTAGGTGATGCATGGTGGAGAGGGGAAAAAGCGGAGTCACCTAGTGCAG | 8500 fluorescence intensity (a.u.)
CTGCATGTAGCCGTTCCGCCTTGCTGGCCGCTGACTCCTGCGGAGTCACCTAGTGCAG | 8650 fluorescence intensity (a.u.)
CCCTCTTCTCTTGTACTTACTTGTGCTTGCTCTCTTCCATCGGAGTCACCTAGTGCAG | 8220 fluorescence intensity (a.u.)
GTTTTCTCCGACTCTGAGAATAGTTTTTCGTGCGCCATCTCGGAGTCACCTAGTGCAG | 8180 fluorescence intensity (a.u.)
AGTTTGCTTTGTTCTCATAAATATCAATGTGAAATACTTACGGAGTCACCTAGTGCAG | 8680 fluorescence intensity (a.u.)
ATCCATCCATCCATCCATCCATCTCCCACCACCACACCTTCGGAGTCACCTAGTGCAG | 8900 fluorescence intensity (a.u.)
CGGGCCACTTATATATCAGTTTCTTTGTCCTTACACAACCCGGAGTCACCTAGTGCAG | 8110 fluorescence intensity (a.u.)
CCTTTATATCATTATTTACATTGGACATATAGTCGATTGCCGGAGTCACCTAGTGCAG | 8400 fluorescence intensity (a.u.)
CTCGACCACACATATATGTTCGATACATTCCATATCTTCCCGGAGTCACCTAGTGCAG | 10700 fluorescence intensity (a.u.)
TTGTGTTGATGGATGATGCGATATCCTCTTCAGTGAATGCCGGAGTCACCTAGTGCAG | 8040 fluorescence intensity (a.u.)
ACCGTTTACTTGTGCTTTGTCCTCTTGTCGCCACGTCCCACGGAGTCACCTAGTGCAG | 15600 fluorescence intensity (a.u.)
GTTAATAATTTCACCGGACTTTATATATCTACTCCTTCGCCGGAGTCACCTAGTGCAG | 8190 fluorescence intensity (a.u.)
TTCGTCGCTCGGTCTGTGCCTGCTCCCTTCCTTGCTGCTCCGGAGTCACCTAGTGCAG | 9390 fluorescence intensity (a.u.)
TAGAGGTGGGCGGTAGGGGCTATTTCTGCAATTTTTTGGTCGGAGTCACCTAGTGCAG | 9680 fluorescence intensity (a.u.)
GCCACACGTGCGACACGTAGACCAAAACCACCGCGGATTGCGGAGTCACCTAGTGCAG | 8090 fluorescence intensity (a.u.)
GAGCCTTTTTTTTTTTACCTCCCTTTCTTCTTCTTTTTTCCGGAGTCACCTAGTGCAG | 13200 fluorescence intensity (a.u.)
GCACTCCCTTTAGCCAGTTACCAAAAATATCTTTTGCATTCGGAGTCACCTAGTGCAG | 8450 fluorescence intensity (a.u.)
CCTCGGCTACACACCCATGACCCATCCCACCACCACCTGTCGGAGTCACCTAGTGCAG | 10600 fluorescence intensity (a.u.)
TATATATATATATATATATATATATATATATATGGAGTATCGGAGTCACCTAGTGCAG | 24600 fluorescence intensity (a.u.)
GGTCGGGCCGCATTGATTGCACATCTTGTCCTCATGCCTTCGGAGTCACCTAGTGCAG | 8550 fluorescence intensity (a.u.)
TCTTCTTTTTATCGTCTAGTATCTATATTCGTAGAGTTTGCGGAGTCACCTAGTGCAG | 8700 fluorescence intensity (a.u.)
